From the supplement of paper PMC7024190
Where a name gives a salt, the structure may show the parent alone. The list shows a part of the results. Repeats in this data set agree poorly, so a single value says little.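 A first-round screen of about ten thousand compounds sought those raising reporter output, using human embryonic kidney cells briefly transfected with a plasmid carrying a Renilla luciferase gene driven by the HSV-TK promoter.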

Test system: HEK 293FT
Experiment: log relative Renilla luciferase luminescence (reporter expression vs reference, reference not stated) (log (base not stated)); higher = higher recombinant reporter expression
Conditions: 10 µM; time after transfection 48 h

In order of rising log:
1. CCn1cnc(C(=O)NC)c1C(=O)NC [Ethylnorantifeine]  -1.05
2. O=C(c1cc2ccccc2o1)N1CCN(Cc2ccccc2)CC1 [Befuraline]  -0.627
3. CC(C)(C)c1ccc(C(=O)CCCN2CCC(OC(c3ccccc3)c3ccccc3)CC2)cc1 [Ebastine]  -0.473
4. O=C1CN(/N=C/c2ccc([N+](=O)[O-])o2)C(=O)N1 [Nitrofurantoin]  -0.262
5. COc1cc(NS(=O)(=O)c2ccc(N)cc2)ncn1 [Sulfamonomethoxine]  -0.238
6. CN1C[C@@H]2C[C@H]1CN2c1cc2c(cc1F)c(=O)c(C(=O)O)cn2C1CC1 [Danofloxacin Mesylate]  -0.23
7. Cc1cc(NC(=O)C2=C(O)c3ccccc3S(=O)(=O)N2C)no1 [Isoxicam]  -0.191
8. Cn1c(=O)c2[nH]c(-c3ccc(O)cc3)nc2n(C)c1=O  -0.167
9. CC(C)NCC(O)COc1ccc(CCOCC2CC2)cc1 (stereo not given) [Betaxolol Hydrochloride]  -0.0912
10. CC(O)(P(=O)(O)O)P(=O)(O)O [Etidronate]  -0.0586
11. C=C1CC[C@H](O)C/C1=C/C=C1\CCC[C@]2(C)[C@@H]([C@H](C)CCCC(C)C)CC[C@@H]12 [Colecalciferol]  -0.0565
12. CCN(CC)Cc1cc(Nc2ccnc3cc(Cl)ccc23)ccc1O [Amodiaquine]  -0.0282
13. COc1ccccc1OC(=O)c1cc(-c2ccccc2)nc2ccccc12 [Guaiacol cinchophenate]  -0.0071
14. O=C(N/N=C/c1ccc(O)c(O)c1)c1ccncc1 [Protozide]  0.0148
15. O=c1cc(-c2ccc(O)cc2)oc2ccc(O)cc12  0.0334
16. O=C(N/N=C/c1cccc(O)c1)c1ccncc1 [Acroteben]  0.0351
17. Cc1ccc(C(C)C)cc2c(C)ccc1-2 [Guaiazulene]  0.04
18. CC(=O)/C=C/C=C(\C)CCC=C(C)C [Pseudoionone]  0.0405
19. CC(=O)Oc1ccc2ccc(=O)oc2c1 [7-Acetoxycoumarin]  0.0513
20. COc1ccc(/C=C/C(=O)O)cc1O [Isoferulic acid]  0.0659
21. Cn1cnc2c1c(=O)n(CC(O)CO)c(=O)n2C (stereo not given) [Dihydroxypropyltheobromine]  0.0745
22. C#CCOc1ccc2c(C)cc(=O)oc2c1 [Giparmen]  0.0942
23. O=C(O)c1cc(-c2ccccc2)nc2ccccc12 [Cinchophen]  0.118
24. COc1cc(C(=O)NCCCCCC(=O)O)cc(OC)c1OC [Capobenic acid]  0.141
25. COc1cc(C(=S)N2CCOCC2)cc(OC)c1OC [Tritiozine]  0.192
